Measured values published in PubChem BioAssay AID445 (National Center for Advancing Translational Sciences (NCATS), 2006).
“And” between values parts separate entries of the source, which are not always exact repeats. Identical values can stand only once. The list shows a part of the results. These are further read-outs of the screen, such as a control signal, another cell line or another target. No call is given for them. Most of these compounds were active or inconclusive in the main read-out, so they are no random draw. Words in brackets tell the shape of the fitted curve; partial curves, single points and poor fits give uncertain potencies.

Test: IkB Signaling
Conditions: ABC-DLBCL IkBa-CBG/CBR dual luciferase ratio (green luciferase fused to IkBa over red control in OCI-Ly3 lymphoma cells), 4 h
Method in brief: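 Curves were fitted separately to fusion (green), unfused (red) and ratio luminescence, then classed by r2, magnitude and activity. Cells: OCI-Ly3, 4 h compound plus doxycycline at 37C; 10 uM MG-132 defined full response.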

[1] = measured here: control luc red channel unless noted
[2] = measured here: IkB-luc green channel
[3] = measured here: control luc red channel

O=C(CSc1nc2ccccc2o1)Nc1nc2c(s1)CCCC2
AC50 [1]: 20 µM [falling, partial curve]

CC(C)Oc1ccc(CNC(=O)c2ccc(NC(=O)c3nsc4ccccc34)cc2)cc1
AC50 [1]: 0.316 µM [falling, full curve]

CC1CCCN(C(=O)c2ccc3c(c2)C(=O)N(CCC2=CCCCC2)C3=O)C1 (stereo not drawn)
AC50 [1]: 20 µM [falling, partial curve]

CCN(CCCNC(=O)c1cc2cc3cc(C)ccc3nc2s1)c1cccc(C)c1
AC50 [1]: 15.8 µM [falling, partial curve, poor fit]

COc1ccc(/C=C(/C#N)c2nc(-c3ccc(-c4ccccc4)cc3)cs2)cc1
AC50 [1]: 0.398 µM [falling, full curve]

Cc1nc(-c2ccccc2)sc1CCNC(=O)c1ccco1
AC50 [1]: 5.01 µM [rising, full curve, poor fit]

COC(=O)c1ccc(CN(c2ccccc2OC)S(=O)(=O)c2cccs2)o1
AC50 [1]: 15.8 µM [falling, partial curve]

CCN(C(=O)Cn1ncc2c1-c1cc(C)ccc1OC2)c1cc(Cl)ccc1OC
AC50 [1]: 25.1 µM [falling, single point]

CCc1ccccc1NC(=O)CSc1ncc2c(n1)-c1ccccc1N(Cc1ccc(C)cc1)S2(=O)=O
AC50 [1]: 7.94 µM [falling, partial curve]

COc1ccc2c(c1)CCc1c(C(=O)NCc3cccnc3)noc1-2
AC50 [1]: 2.51 µM [falling, partial curve]

COc1ccccc1-c1cc(C(=O)NCc2ccco2)no1
AC50 [1]: 1.26 µM [falling, full curve]

COc1ccc(-n2ncc(C(=O)N3CCN(c4ccccn4)CC3)c2C2CCN(C(=O)OC(C)(C)C)CC2)cc1
AC50 [1]: 31.6 µM [falling, single point]

CC(Sc1oc(-c2ccco2)nc1S(=O)(=O)c1ccc(Br)cc1)c1ccccc1 (stereo not drawn)
AC50 [1]: 3.98 µM [falling, full curve]

CCCCNc1nc(Oc2ccc(=O)n(-c3ccccc3)n2)nc(N(C)C)n1
AC50 [1]: 7.94 µM [falling, single point]

CC1(N2CCOCC2)CC2(O)C(=[N+]1[O-])CCc1c2no[n+]1[O-] (stereo not drawn)
AC50 [1]: 7.94 µM [rising, partial curve] [measured here: IkB-luc green channel]

CCC(C)NC(=O)c1ccc2c(c1)N(Cc1cccc(Cl)c1)C(=O)c1ccccc1S2=O (stereo not drawn)
AC50 [1]: 3.16 µM [falling, partial curve]

COc1ccc(N2CCN(c3nc(-c4ccccc4F)nc4ccccc34)CC2)cc1
AC50 [1]: 12.6 µM [falling, partial curve]

O=C(CN(c1cccc(Br)c1)S(=O)(=O)c1ccccc1)N1CCc2ccccc2C1
AC50 [1]: 20 µM [falling, single point]

CCOc1ccccc1NC(=O)C(NS(=O)(=O)c1cccc2nsnc12)c1ccccc1 (stereo not drawn)
AC50 [1]: 39.8 µM [falling, single point]

Cc1nnc(N2CCN(c3ccccc3F)CC2)c2c1nnn2Cc1ccc(F)cc1
AC50 [1]: 20 µM [falling, partial curve]

CCOC(=O)Cn1c(=O)cc(-c2ccccc2)c2c(C)nn(C)c21
AC50 [1]: 0.251 µM [falling, full curve, poor fit]

O=C(c1cccc2c1-c1ccccc1/C2=N/O)N1CCCCC1
AC50 [1]: 10 µM [falling, partial curve]

COc1cccc(NC(=O)c2oc3ccccc3c2NC(=O)C(C)(C)C)c1
AC50 [1]: 10 µM [falling, partial curve]

CC(=O)Oc1ccc(Oc2ccc(-c3noc(C)n3)cc2)cc1
AC50 [1]: 15.8 µM [falling, partial curve]

CCc1ccccc1N(CC)C(=O)c1cc2c(s1)-c1ccccc1OC2
AC50 [1]: 31.6 µM [falling, partial curve, poor fit]

Cc1ccccc1CSc1nc2nc(C)c(Cc3ccccc3)c(C)n2n1
AC50 [1]: 39.8 µM [falling, single point]

Cc1nc(-c2ccccc2)sc1-c1ccc(SCC(=O)Nc2ccc(F)cc2F)nn1
AC50 [1]: 1 µM [falling, full curve]

CC(=O)c1cc2c(cc1NC(=O)Nc1cccc(Cl)c1)OCCO2
AC50 [1]: 0.01 µM [rising, full curve, poor fit]

Cc1ccc(CCNS(=O)(=O)c2cc(-c3cc(C)no3)ccc2C)cc1
AC50 [1]: 31.6 µM [falling, single point]

CCCN(C(=O)c1cc2c(=O)oc3ccccc3c2s1)c1ccc(CC)cc1
AC50 [1]: 0.0158 µM [falling, full curve, poor fit]

CCc1ccc(OCC(=O)NC(Cc2c[nH]c3ccccc23)C(=O)O)cc1 (stereo not drawn)
AC50 [1]: 25.1 µM [falling, single point]

Cc1ccccc1Nc1cc(C(=O)NCCCN2CCN(c3cccc(Cl)c3)CC2)c2ccccc2n1
AC50 [1]: 15.8 µM [falling, partial curve]

COc1ccc(Cl)cc1C(=O)Nc1ccccc1N1CCN(C(=O)C(C)C)CC1
AC50 [1]: 25.1 µM [falling, partial curve]

CCOc1ccc(CCNC(=O)C2CCN(C(=O)N3CC(CC)Oc4ccccc43)CC2)cc1 (stereo not drawn)
AC50 [1]: 15.8 µM [falling, partial curve]

CCCCN(CC)CCCNC(=O)CS(=O)(=O)Cc1nc(-c2ccc(C)cc2)oc1C
AC50 [1]: 15.8 µM [falling, single point]

CCOC(=O)c1c(C)[nH]c(C(=O)CN2C(=O)NC(C)(c3ccc(C)cc3)C2=O)c1C (stereo not drawn)
AC50 [1]: 25.1 µM [falling, partial curve]

COc1ccc(NC(c2nnc(-c3ccccc3)o2)c2ccccc2F)cc1Cl (stereo not drawn)
AC50 [1]: 15.8 µM [falling, partial curve]

COc1cc(NC(=O)CSc2nnc(C)n3c2cc2oc(C)cc23)cc(OC)c1
AC50 [1]: 7.94 µM [falling, single point]

Cn1nnc2c(N3CCN(c4cccc(Cl)c4)CC3)ncnc21
AC50 [1]: 3.16 µM [rising, partial curve]

CN(C)CCN1C(=O)c2oc3ccc(Cl)cc3c(=O)c2C1c1cccc(Br)c1 (stereo not drawn)
AC50 [1]: 2 µM [falling, full curve, poor fit]

COCCCNC(=O)c1c(NC(=O)Cc2coc3c(C)c(C)ccc23)sc2c1CCCC2
AC50 [1]: 10 µM [falling, partial curve]

CCCCOC(=O)c1c(N)n(-c2ccc(OC)cc2OC)c2nc3ccccc3nc12
AC50 [1]: 31.6 µM [falling, single point]

Cc1ccc(Sc2c(C)nn(-c3ccccc3)c2OC(=O)C(C)(C)C)cc1
AC50 [1]: 15.8 µM [falling, single point]

COc1ccc(OC)c(NS(=O)(=O)c2cc3c(cc2Cl)N(C(C)=O)CCO3)c1
AC50 [1]: 0.794 µM [falling, full curve]

CCOc1ccc(NC(=O)CC2C(=O)N(c3ccc(F)cc3)C(=O)N2Cc2ccc(OC)c(OC)c2)cc1 (stereo not drawn)
AC50 [1]: 2.51 µM [falling, partial curve]

Cc1ccc(-c2cc(C(=O)Nc3cc([N+](=O)[O-])ccc3C)no2)cc1F
AC50 [1]: 12.6 µM [falling, partial curve]

Cc1ccc(C)c2sc(NC(=O)c3ccc(S(=O)(=O)N4CCC(C)CC4)cc3)nc12
AC50 [1]: 1 µM [falling, partial curve]

O=C(CSc1nc2cc(C(=O)NC3CCCC3)ccc2c(=O)n1CC1CCCO1)c1cccc(Cl)c1 (stereo not drawn)
AC50 [1]: 10 µM [rising, partial curve] [measured here: IkB-luc green channel]

COc1ccc(CCNc2oc(/C=C/c3cc(OC)c(OC)c(OC)c3)nc2C#N)cc1OC
AC50 [1]: 31.6 µM [falling, single point]

COc1ccc(OC)c(CCNC(=O)CS(=O)(=O)Cc2nc(-c3cccc(Cl)c3)oc2C)c1
AC50 [1]: 20 µM [falling, single point]

CN(C)c1ccc(CN(Cc2ccco2)C(=O)c2ccc(C(C)(C)C)cc2)cc1
AC50 [1]: 39.8 µM [falling, single point]

COc1cc(OC)c(Nc2nc3ccccc3c3nncn23)cc1Cl
AC50 [1]: 0.0158 µM [rising, full curve, poor fit]

Cc1oc(-c2cccc(Cl)c2)nc1CSc1nncn2c1cc1occc12
AC50 [1]: 31.6 µM [falling, partial curve]

Cc1c(Cl)ccc2sc(N3CCN(C(=O)C(C)C)CC3)nc12
AC50 [1]: 3.16 µM [rising, single point]

CCOC(=O)c1c(NC(=O)c2cc(C(C)C)on2)sc(C(C)=O)c1C
AC50 [1]: 0.398 µM [rising, full curve]

CCOC(=O)c1c(C)oc2nc(C)nc(Nc3ccc(C)c(Cl)c3)c12
AC50 [1]: 0.501 µM [rising, full curve]

CN1Cc2cc(C(=O)c3cc(Cl)cc(CSc4ncccn4)c3O)cnc2NC1=O
AC50 [2]: 0.794 µM [rising, full curve] | AC50 [3]: 0.316 µM [rising, full curve]

COc1cccc(-n2c(=O)c3c(C)c(C)sc3n(CC(=O)NCCc3ccc(OC)c(OC)c3)c2=O)c1
AC50 [1]: 0.0126 µM [rising, partial curve, poor fit]

Cc1ccc(Cn2c(C(=O)O)c(CNCc3ccc(OC(C)C)cc3)c3ccc(C)cc32)cc1
AC50 [1]: 25.1 µM [falling, partial curve]

COc1ccc(OC)c(NC(=O)CSc2ccc(-c3cccs3)nn2)c1
AC50 [1]: 3.16 µM [rising, partial curve, poor fit]
